No constants are given. Whether binding was seen depends on the method and setting. Some entries that bind do so weakly or less than the wild type.
Target: MHC-1 (MHC class I molecules) on murine dendritic cell line DC2.4 cells (mouse)
Assay: competition with OVA peptide 1 for MHC-1 on DC2.4 cells, flow cytometry

**Q.** With CVYDFFVWL [C-TRP2-8 (cysteine added to the N-terminus of residues 181 to 188 of mTRP2)] as the binder, how does the binding read?
**A.** binds

From US20230144876A1 (UNIVERSITY OF KITAKYUSHU, published 2023)
